The values that follow come from patent US20130071417A1 (GOVERNING COUNCIL OF THE UNIVERSITY OF TORONTO, published 2013).

Amino acid sequences for entries named in this document (tags omitted). A change or cut given only in a name is not applied to a line headed by its entry.
UniProt P06731: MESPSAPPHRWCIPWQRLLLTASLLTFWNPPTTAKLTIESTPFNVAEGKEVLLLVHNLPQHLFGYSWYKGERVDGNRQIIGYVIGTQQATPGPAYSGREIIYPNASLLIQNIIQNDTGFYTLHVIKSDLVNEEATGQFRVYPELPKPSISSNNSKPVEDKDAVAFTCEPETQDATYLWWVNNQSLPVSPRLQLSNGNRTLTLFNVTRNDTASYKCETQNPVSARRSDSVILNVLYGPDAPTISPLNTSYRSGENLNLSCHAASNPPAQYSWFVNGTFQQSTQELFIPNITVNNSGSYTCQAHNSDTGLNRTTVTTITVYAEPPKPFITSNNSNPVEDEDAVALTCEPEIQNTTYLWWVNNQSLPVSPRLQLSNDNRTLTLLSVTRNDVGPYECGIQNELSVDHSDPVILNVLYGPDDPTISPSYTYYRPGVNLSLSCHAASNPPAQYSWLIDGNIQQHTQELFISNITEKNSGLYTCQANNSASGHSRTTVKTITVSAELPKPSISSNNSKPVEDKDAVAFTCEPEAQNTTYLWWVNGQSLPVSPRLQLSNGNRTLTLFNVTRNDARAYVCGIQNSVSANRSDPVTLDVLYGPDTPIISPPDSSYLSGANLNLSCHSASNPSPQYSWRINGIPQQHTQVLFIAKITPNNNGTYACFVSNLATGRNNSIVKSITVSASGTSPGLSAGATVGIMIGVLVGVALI

In this test the target is untagged rCEA N domain (cleaved rCEA N, residues 1-132) (human) (UniProt P06731). Put plainly: ELISA; untagged rCEA N coated, His-tagged module in solution, anti-His HRP detection.

These are yes or no findings as the source states them, for the method shown. Some entries that bind do so weakly or less than the wild type. Tags and fused reporters may be left off the sequences shown.

B1: His-tagged rCEA N domain (protein)
chain: MHHHHHHHHENLYFQKLTIESTPFNVAEGKEVLLLVHNLPQHLFGYSWYKGERVDGNRQIIGYVIGTQQATPGPAYSGREIIYPNASLLIQNIIQNDTGFYTLHVIKSDLVNEEATGQFRVYPELPKPSISSNNSKPVEDKDAVAFT
In the case of B1, the binding result is “binds”.
